Measured values published in PubChem BioAssay (Tox21).
Where “and” joins values, the source holds several entries; their conditions need not be identical. Equal entries are not always repeated. The shares of active, inactive and inconclusive entries below differ from those in the screen. Where the call is inconclusive, the potency comes from a doubtful curve fit. Calls of active or inactive are those of the source. Calls come from the whole dose curve.

Target: Beta-2 adrenergic receptor (Homo sapiens) (UniProt P07550)
Assay: Adrenergic beta2 receptor (ADRB2) small molecule agonists, cell-based qHTS assay (AID 1963593)
Conditions: CHO-ADRB2 cells, cAMP HTRF, 30 min; activation: at 92.4 µM (top of the series) unless noted
Excerpt: National Center for Advancing Translational Sciences [NCATS]
Division of Preclinical Innovation [DPI]
U.S. Environmental Protection Agency [EPA]
National Institutes of Environmental Health Sciences [NIEHS]
National Toxicology Program [NTP]
U.S. Food and Drug Administration [FDA]
Beta adrenergic receptors (Beta-ARs) belong to the G-protein coupled receptor (GPCR) superfamily, includes three subtypes - beta1, beta2, and beta3. Beta1-AR is the predominant receptor subtype expressed in the heart, and beta2-AR is expressed in the kidney, lung, blood vessel and in the heart, and beta3 is found in the adipocytes. Beta1 and 2 ARs couple to Gs protein and elevate cyclic adenosine mono phosphate (cAMP), which activates protein kinase A and leads to the downstream signaling responsible for the physiological actions. Beta-AR agonists or antagonists are the most prescribed therapeutic agents for heart failure and asthma, and these were one of the first target receptors for the rational drug design. Tox21 10K compound library was screened using the cAMP-Gs dynamic assay (Cisbio Bioassays, Shelton, CT) to identify agonists/antagonists of the Gs-coupled human adrenergic, beta2 receptor (ADRB2) in the CHO-ADRB2 cell line (Codex BioSolutions, Inc. Gaithersburg, MD), which stably over-expresses ADRB2. The principle of cAMP-Gs dynamic assay is based on HTRF technology, which facilitates the fluorescence resonance energy transfer (FRET) between donor Europium cryptate and acceptor d2-labeled cAMP. The cAMP generated within cells competes with the red acceptor, d2-labled cAMP, for binding to the monoclonal anti-cAMP-cryptate (Europium donor). An increase in intracellular cAMP leads to the disruption of FRET signal, and the signal is inversely proportional to the cAMP concentration. Isoproterenol HCl (Sigma-Aldrich, St. Louis, MO) was used as a positive control in the screening.
Tox21 Assay Protocol Summary:
CHO-ADRB2 cells were dispensed at 1,000/well in 4uL assay medium into white/solid 1536-well plates (Greiner Bio-One North America Inc., Monroe, NC) using a Multidrop Combi dispenser (ThermoFisher Scientific, Waltham, MA). The assay plates were incubated at 37C and 5% CO2 for an overnight (18-20hr). Then positive control and test compounds dissolved in DMSO were transferred to the assay plates at 23nL using a Pintool station (Wako, San Diego, CA). Following the compound and positive control transfer, 1uL stimulation mix containing 100uM IBMX and 25uM Ro-20-1724 was added to each well of the assay plates using BioRAPTR Flying Reagent Dispenser (FRD, Beckman Coulter, Brea, CA). The assay plates were incubated at room temperature for 0.5hr. Then 2.5ul each d2-labled cAMP and anti-cAMP-cryptate solutions were added separately to each well of the assay plates using an FRD and the assay plates were incubated at room temperature for 1hr.
% is set by controls: 0 for no effect and ±100 for the full control effect; potency is the fitted concentration of half-maximal effect.

| Structure (SMILES) | Potency | activation |
| --- | --- | --- |
| C=C(C)[C@@H]1CC=C(C)CC1 | inactive | – |
| CC(CO)(CO)[N+](=O)[O-] | inactive | – |
| Cc1cc(=O)oc2cc(O)ccc12 | inconclusive: 4.86 µM [inhibitor, full curve, poor fit] | inconclusive: 8.11% [at 42.5 µM] |
| Cc1ccc(/C=N/n2c(-c3ccccc3)csc2=S)cc1 | – | inconclusive: -93.6% [at 42.5 µM] |
| F[B-](F)(F)F | inconclusive: 17.5 µM [inhibitor, partial curve, poor fit] | inconclusive: 1.34% and inconclusive: -0.654% |
| CC(C)CC(=O)O | – | inconclusive: -10.9% |
| CCCC(=O)OCCC(C)CCC=C(C)C (stereo not given) | inactive | – |
| NS(=O)(=O)c1cc(C(=O)O)c(NCc2ccco2)cc1Cl | inconclusive: 2.73 µM [inhibitor, full curve, poor fit] | inconclusive: 11.3% [at 42.5 µM] |
| CCCN1CCCC[C@H]1C(=O)Nc1c(C)cccc1C | inconclusive: 0.596 µM [inhibitor, full curve, poor fit] | – |
| Oc1ccc2c(c1)OC[C@@H](N1CCC(O)(c3ccc(F)cc3)CC1)[C@H]2O | inactive | – |
| Cn1c(=O)c2c(ncn2CCO)n(C)c1=O | – | inconclusive: 15.4% [at 42.5 µM] |
| c1ccc(CCNc2nc(-c3ccccc3)cs2)cc1 | – | inconclusive: -29.1% [at 42.5 µM] |
| CCC(=O)OC(C)c1ccccc1 (stereo not given) | – | inconclusive: 0.827% |
| N[C@@H](CSSC[C@H](N)C(=O)O)C(=O)O | – | inactive: -18.9% [at 0.349 µM] |
| CC(=O)c1ccc(O)c(C(N)=O)c1 | inactive | – |
| CCC(C)(C)C1CCC(O)CC1 (stereo not given) | – | inconclusive: -42.1% |

| Structure (SMILES) | Potency | activation |
| --- | --- | --- |
| CC(C)(C)NCC(O)COc1ccc(NC(=O)NC2CCCCC2)cc1 (stereo not given) | inconclusive: 1.68 µM [inhibitor, full curve] | – |
| COC(=O)c1cc(Cl)cc(Cl)c1 | – | inconclusive: 11.9% |
| COc1nc(N)nc2c1ncn2[C@@H]1O[C@H](CO)[C@@H](O)[C@@H]1O | inactive | – |
| Nc1ccc(C(=O)N2CC3CC(CN(Cc4ccccc4)C3)C2)cc1 | – | inconclusive: 18.7% [at 42.5 µM] |
| CCCCOC(=O)/C=C\C(=O)OCCCC | inconclusive: 0.0795 µM [inhibitor, full curve, poor fit] | – |
| C=C(C)C(=O)Nc1ccc(Cl)c(Cl)c1 | inconclusive: 6.18 µM [inhibitor, full curve, poor fit] | inconclusive: -27.9% |
| CCOC(=O)COc1cc(-n2ncc(C(F)(F)F)c(C)c2=O)c(F)cc1Cl | inactive | – |
| CC(C)Cn1cnc2c1c(=O)n(C)c(=O)n2C | inactive | – |
| N=C(N)S(=O)O | inconclusive: 5.88 µM [inhibitor, single point] | – |
| CC1OC(=O)C(C)OC1=O (stereo not given) | inactive | – |
| Cc1cc(C)c(N=Nc2c(O)c(S(=O)(=O)O)cc3cc(S(=O)(=O)O)ccc23)cc1C | – | inactive: -2.26% [at 8.39 µM] |
| NCCS(=O)(=O)O | – | inconclusive: -96% [at 42.5 µM] |
| CCCCCCCCOC(=O)c1ccc(O)cc1 | inconclusive: 68.4 µM [inhibitor, single point] | inconclusive: 31.1% |
| CCCOCCOCCO | – | inconclusive: 20.3% |
| CC1(C)S[C@@H]2[C@H](NC(=O)C(C(=O)O)c3ccccc3)C(=O)N2[C@H]1C(=O)O (stereo not given in full) | – | inconclusive: 4.87% [at 42.5 µM] |
| O=S(=O)(O)c1ccc2nc(-c3ccccc3)[nH]c2c1 | – | inconclusive: -43.5% |

Gathered by group, the entries above with two or more sulfur atoms.

| Structure (SMILES) | Potency | activation |
| --- | --- | --- |
| Cc1ccc(/C=N/n2c(-c3ccccc3)csc2=S)cc1 | – | inconclusive: -93.6% [at 42.5 µM] |
| N[C@@H](CSSC[C@H](N)C(=O)O)C(=O)O | – | inactive: -18.9% [at 0.349 µM] |
| Cc1cc(C)c(N=Nc2c(O)c(S(=O)(=O)O)cc3cc(S(=O)(=O)O)ccc23)cc1C | – | inactive: -2.26% [at 8.39 µM] |

Same assay, conditions: CHO-ADRB2 cells, cAMP HTRF, 30 min; at 42.5 µM (top of the series)

| Structure (SMILES) | activation |
| --- | --- |
| NCCS(=O)(=O)O | inactive: 4.96% |
| O=S(=O)(O)c1ccc2nc(-c3ccccc3)[nH]c2c1 | inactive: 7.21% |

Same assay, conditions: CHO-ADRB2 cells, cAMP HTRF, 30 min; at 92.4 µM (top of the series)

| Structure (SMILES) | activation |
| --- | --- |
| F[B-](F)(F)F | inactive: 16.5% |
